Measurements: the supplement of paper PMC10849652
The other results are listed elsewhere or left out.

Protein sequences, listed by entry. Tags and fused reporters are not part of them. Lines headed by an entry give the natural chain unless they say otherwise; changes in a name come on top.
UniProt Q96S59, whole entry, looked up: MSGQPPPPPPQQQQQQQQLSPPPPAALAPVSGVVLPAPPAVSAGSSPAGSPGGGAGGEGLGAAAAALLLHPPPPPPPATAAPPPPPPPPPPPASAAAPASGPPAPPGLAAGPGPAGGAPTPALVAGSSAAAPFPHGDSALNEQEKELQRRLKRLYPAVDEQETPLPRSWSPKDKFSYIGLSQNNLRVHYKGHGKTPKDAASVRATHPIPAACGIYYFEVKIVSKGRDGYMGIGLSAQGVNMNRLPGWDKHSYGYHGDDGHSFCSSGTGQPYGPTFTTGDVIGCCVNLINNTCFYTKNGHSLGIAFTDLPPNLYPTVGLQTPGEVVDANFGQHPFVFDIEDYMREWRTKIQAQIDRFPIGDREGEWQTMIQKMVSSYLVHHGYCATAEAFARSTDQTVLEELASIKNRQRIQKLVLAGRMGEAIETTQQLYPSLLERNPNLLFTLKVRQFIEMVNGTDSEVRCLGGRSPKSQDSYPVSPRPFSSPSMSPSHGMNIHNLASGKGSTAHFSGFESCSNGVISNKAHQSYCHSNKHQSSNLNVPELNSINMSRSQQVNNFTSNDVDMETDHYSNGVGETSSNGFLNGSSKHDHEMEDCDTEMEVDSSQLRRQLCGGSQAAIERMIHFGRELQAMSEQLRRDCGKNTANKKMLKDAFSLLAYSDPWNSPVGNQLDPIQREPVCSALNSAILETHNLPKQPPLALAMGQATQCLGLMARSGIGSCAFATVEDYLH
UniProt Q92696: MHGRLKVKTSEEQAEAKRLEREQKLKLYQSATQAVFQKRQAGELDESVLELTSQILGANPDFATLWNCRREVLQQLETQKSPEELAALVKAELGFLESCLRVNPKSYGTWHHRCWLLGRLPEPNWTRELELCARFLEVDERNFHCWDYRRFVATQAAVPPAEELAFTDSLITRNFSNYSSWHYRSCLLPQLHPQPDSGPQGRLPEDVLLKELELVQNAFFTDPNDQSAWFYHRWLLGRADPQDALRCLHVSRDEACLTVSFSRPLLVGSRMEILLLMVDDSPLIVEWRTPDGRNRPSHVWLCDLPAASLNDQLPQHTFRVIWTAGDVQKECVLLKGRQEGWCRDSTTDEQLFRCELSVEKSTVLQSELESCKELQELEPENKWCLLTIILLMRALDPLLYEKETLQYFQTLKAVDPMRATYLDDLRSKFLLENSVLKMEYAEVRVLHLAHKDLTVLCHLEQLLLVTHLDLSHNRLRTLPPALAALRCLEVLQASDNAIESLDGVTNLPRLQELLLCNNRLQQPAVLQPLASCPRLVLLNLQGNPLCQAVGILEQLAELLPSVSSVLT
UniProt Q8WUD1: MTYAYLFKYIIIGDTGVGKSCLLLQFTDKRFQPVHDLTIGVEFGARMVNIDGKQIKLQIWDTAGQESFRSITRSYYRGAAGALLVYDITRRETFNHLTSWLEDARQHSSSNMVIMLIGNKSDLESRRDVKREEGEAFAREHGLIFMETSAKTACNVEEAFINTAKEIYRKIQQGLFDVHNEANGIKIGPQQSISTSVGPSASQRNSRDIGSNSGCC
UniProt Q96PU8: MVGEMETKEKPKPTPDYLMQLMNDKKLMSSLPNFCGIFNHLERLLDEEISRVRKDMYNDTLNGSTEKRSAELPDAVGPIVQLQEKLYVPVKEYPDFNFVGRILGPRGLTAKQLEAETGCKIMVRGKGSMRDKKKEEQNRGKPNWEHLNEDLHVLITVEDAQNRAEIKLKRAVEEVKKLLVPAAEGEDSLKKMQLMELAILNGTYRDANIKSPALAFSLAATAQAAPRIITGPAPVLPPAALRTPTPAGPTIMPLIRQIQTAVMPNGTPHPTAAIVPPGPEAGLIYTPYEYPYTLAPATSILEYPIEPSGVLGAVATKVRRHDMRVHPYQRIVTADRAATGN
UniProt Q15771: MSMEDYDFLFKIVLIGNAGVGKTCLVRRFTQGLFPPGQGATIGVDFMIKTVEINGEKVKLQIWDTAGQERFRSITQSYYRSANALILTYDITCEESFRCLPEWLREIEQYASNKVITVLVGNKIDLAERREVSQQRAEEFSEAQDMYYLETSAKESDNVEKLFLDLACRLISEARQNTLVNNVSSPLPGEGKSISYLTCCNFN
UniProt P61026: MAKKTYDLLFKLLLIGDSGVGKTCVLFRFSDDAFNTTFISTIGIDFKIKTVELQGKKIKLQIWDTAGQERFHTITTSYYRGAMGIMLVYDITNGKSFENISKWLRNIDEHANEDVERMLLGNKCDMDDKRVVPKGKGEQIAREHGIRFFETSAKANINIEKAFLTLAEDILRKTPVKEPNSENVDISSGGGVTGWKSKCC
UniProt Q9UJ41, whole entry, looked up: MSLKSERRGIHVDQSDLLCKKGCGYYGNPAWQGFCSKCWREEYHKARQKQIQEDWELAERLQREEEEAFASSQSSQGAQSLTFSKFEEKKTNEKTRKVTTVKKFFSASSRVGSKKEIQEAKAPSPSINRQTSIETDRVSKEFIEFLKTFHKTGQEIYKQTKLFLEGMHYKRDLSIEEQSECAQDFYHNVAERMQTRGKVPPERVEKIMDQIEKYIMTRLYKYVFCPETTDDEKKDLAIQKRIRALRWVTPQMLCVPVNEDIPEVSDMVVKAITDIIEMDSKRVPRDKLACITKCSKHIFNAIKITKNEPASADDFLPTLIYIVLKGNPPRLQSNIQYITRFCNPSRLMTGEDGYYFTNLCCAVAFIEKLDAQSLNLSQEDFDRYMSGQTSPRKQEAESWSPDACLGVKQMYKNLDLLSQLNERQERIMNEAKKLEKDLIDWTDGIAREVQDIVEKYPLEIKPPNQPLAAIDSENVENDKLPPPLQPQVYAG
UniProt P51151: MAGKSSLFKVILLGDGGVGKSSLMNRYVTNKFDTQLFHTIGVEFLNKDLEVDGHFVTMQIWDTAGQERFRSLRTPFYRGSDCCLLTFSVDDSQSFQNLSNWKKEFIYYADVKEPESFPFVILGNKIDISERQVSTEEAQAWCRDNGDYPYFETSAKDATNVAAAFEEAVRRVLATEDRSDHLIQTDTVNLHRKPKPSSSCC
UniProt Q9Y3L5: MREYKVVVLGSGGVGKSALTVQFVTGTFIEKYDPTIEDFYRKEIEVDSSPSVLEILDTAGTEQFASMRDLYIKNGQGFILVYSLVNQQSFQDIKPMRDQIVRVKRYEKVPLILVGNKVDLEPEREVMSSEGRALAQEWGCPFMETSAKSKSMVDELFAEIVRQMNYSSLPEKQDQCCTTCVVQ
UniProt Q9ULZ3, whole entry, looked up: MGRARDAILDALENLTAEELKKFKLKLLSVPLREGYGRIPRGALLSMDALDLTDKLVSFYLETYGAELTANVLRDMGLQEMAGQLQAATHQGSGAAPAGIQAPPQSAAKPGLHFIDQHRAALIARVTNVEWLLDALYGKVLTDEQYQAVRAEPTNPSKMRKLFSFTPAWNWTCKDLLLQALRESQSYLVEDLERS
UniProt Q9H6Z4: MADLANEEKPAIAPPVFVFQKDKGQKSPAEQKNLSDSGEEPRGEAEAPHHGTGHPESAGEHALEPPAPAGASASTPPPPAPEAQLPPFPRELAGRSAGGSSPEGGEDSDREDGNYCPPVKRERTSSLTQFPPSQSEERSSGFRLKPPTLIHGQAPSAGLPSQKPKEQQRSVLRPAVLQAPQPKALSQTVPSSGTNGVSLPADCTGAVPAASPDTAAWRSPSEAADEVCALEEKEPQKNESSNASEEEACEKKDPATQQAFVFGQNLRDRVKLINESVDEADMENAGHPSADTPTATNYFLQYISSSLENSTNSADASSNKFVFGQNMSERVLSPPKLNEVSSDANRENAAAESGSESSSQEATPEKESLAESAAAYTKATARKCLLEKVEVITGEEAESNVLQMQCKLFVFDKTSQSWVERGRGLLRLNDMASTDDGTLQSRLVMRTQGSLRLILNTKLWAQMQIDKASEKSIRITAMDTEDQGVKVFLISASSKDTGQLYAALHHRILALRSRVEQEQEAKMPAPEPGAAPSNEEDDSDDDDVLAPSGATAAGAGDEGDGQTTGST
UniProt P47224: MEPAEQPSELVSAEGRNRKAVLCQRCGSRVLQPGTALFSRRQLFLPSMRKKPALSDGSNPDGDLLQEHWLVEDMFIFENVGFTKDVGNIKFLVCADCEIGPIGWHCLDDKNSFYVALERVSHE
UniProt Q9NS91, whole entry, looked up: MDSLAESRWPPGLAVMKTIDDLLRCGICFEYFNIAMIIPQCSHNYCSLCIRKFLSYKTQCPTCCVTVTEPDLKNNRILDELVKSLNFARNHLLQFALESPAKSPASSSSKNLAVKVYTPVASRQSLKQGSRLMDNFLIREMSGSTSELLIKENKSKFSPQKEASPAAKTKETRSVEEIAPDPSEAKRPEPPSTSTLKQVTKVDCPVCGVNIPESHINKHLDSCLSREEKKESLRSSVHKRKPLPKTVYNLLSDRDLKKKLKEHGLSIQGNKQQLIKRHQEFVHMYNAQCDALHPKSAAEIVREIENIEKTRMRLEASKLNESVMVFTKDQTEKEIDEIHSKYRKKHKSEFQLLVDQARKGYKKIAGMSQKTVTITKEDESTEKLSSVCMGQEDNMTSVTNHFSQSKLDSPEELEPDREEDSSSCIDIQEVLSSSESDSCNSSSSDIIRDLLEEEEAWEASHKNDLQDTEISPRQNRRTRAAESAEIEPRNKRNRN
UniProt P61106, whole entry, looked up: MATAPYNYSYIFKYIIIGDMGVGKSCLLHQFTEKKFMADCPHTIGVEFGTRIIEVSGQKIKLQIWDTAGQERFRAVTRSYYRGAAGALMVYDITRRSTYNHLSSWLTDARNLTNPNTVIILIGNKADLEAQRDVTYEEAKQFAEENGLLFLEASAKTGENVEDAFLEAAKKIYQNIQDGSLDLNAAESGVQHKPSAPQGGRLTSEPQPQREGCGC
UniProt O43502: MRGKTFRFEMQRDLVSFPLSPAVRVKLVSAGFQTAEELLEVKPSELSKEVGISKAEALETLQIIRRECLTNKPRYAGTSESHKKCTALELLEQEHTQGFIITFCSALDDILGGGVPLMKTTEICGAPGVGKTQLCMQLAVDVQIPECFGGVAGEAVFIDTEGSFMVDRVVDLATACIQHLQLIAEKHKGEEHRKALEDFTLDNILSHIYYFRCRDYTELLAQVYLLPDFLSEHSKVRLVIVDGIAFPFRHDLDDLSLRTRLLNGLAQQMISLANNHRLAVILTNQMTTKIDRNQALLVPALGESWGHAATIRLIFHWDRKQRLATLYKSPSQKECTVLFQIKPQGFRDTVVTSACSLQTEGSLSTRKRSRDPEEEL
UniProt Q86X10: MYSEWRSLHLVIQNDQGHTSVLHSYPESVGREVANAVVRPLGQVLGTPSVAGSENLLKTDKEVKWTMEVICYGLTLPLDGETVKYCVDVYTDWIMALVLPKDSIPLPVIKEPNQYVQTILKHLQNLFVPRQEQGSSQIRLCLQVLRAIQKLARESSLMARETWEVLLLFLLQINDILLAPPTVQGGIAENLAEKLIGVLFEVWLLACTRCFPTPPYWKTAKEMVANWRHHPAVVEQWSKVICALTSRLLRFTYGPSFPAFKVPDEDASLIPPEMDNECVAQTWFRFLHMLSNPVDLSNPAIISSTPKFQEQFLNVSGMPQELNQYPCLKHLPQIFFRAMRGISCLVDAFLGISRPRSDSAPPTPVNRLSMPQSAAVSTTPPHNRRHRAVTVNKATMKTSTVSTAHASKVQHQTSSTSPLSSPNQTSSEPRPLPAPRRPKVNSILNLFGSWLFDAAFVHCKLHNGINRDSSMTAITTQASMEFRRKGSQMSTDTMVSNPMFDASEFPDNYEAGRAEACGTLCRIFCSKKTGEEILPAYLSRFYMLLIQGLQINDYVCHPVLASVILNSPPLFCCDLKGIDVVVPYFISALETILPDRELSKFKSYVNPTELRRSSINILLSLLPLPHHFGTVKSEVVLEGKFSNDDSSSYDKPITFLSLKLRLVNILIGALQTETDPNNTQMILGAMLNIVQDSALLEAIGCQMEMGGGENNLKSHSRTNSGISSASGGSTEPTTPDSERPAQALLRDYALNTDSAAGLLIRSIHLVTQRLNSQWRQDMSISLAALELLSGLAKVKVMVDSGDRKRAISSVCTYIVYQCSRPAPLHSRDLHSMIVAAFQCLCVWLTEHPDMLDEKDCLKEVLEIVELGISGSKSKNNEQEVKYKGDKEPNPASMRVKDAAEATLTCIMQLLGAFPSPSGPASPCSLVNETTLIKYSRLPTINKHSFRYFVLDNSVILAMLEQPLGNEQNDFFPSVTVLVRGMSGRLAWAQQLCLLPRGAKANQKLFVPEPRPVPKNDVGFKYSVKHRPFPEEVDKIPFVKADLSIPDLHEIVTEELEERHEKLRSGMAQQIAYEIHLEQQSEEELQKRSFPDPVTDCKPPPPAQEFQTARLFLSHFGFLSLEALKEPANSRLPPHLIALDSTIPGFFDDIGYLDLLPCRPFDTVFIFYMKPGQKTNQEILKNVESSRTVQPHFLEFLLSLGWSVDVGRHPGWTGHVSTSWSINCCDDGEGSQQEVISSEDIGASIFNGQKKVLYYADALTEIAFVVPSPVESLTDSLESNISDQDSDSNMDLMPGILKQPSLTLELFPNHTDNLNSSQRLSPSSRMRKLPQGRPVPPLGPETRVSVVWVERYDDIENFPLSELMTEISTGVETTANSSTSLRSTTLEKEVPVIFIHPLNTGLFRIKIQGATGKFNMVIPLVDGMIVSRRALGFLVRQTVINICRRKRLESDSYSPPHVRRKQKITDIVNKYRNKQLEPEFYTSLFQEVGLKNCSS

What follows are targets tested with CC1=C(SC2=C1C(=N[C@H](C3=NN=C(N32)C)CC(=O)N)C4=CC=C(C=C4)Cl)C (assay: log2 fold change, soluble protein after heating vs DMSO (PISA); higher = thermal stabilisation; K562 lysate, 10 uM; active = over 0.2 and 3.5 SD of the protein, either way, in both replicates (recomputed)).
In short: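 Pellets of K562 cells were dounce-homogenised in PBS pH 7.4 with 1 mM MgCl2, and the crude extract was held at 1 mg/mL protein for a 30 min treatment with 10 μM compound. Aliquots were heated for 3 min over 48°C-58°C and pooled before NP-40 was added to 0.5% at 4°C. The supernatant from 21,000xg for 90 min was quantified by TMTpro 16plex LC-MS/MS with channel sums equalised. Values are reported from duplicates as log-two fold change in thermal stability relative to solvent controls.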

Q: For RABEPK (UniProt Q7Z6M1), which log2 fold change is on record?
A: inactive: 0.054

Q: How did the log2 fold change turn out when RAC1 isoform 2 (UniProt P63000) was run?
A: inactive: -0.05

Q: With RANBP9 (UniProt Q96S59) as the target, how does the log2 fold change read?
A: inactive: 0.013

Q: With RABGGTA (UniProt Q92696) as the target, how does the log2 fold change read?
A: inactive: 0.011

Q: Which log2 fold change does the source give for RAB2B (UniProt Q8WUD1) here?
A: inactive: -0.035

Q: QKI (UniProt Q96PU8) was tested. Which log2 fold change did it give?
A: inactive: -0.001

Q: For RAB30 (UniProt Q15771), which log2 fold change is on record?
A: inactive: -0.048

Q: With RAD9A (UniProt Q99638) as the target, how does the log2 fold change read?
A: inactive: 0.002

Q: How did the log2 fold change turn out when RAB10 (UniProt P61026) was run?
A: inactive: 0.025

Q: Which log2 fold change does the source give for RABGGTB (UniProt P53611) here?
A: inactive: -0.01

Q: How did the log2 fold change turn out when RABGEF1 isoform 3 (UniProt Q9UJ41) was run?
A: inactive: 0

Q: For RABGAP1L isoform 5 (UniProt Q5R372), which log2 fold change is on record?
A: inactive: -0.022

Q: How did the log2 fold change turn out when RAE1 (UniProt P78406) was run?
A: inactive: -0.081

Q: How did the log2 fold change turn out when RAB20 (UniProt Q9NX57) was run?
A: inactive: -0.235

Q: For RALGAPA1 isoform 6 (UniProt Q6GYQ0), which log2 fold change is on record?
A: inactive: -0.072

Q: RAB9A (UniProt P51151) was tested. Which log2 fold change did it give?
A: inactive: 0.037

Q: How did the log2 fold change turn out when RAD23B (UniProt P54727) was run?
A: inactive: -0.04

Q: Which log2 fold change does the source give for PYGL (UniProt P06737) here?
A: inactive: 0.009

Q: How did the log2 fold change turn out when RAP2C (UniProt Q9Y3L5) was run?
A: inactive: 0.111

Q: For PYCARD (UniProt Q9ULZ3), which log2 fold change is on record?
A: inactive: -0.031

Q: For RAB7A (UniProt P51149), which log2 fold change is on record?
A: inactive: -0.016

Q: QPRT (UniProt Q15274) was tested. Which log2 fold change did it give?
A: inactive: -0.001

Q: For RAC2 (UniProt P15153), which log2 fold change is on record?
A: inactive: 0.043

Q: With RANBP3 isoform 2 (UniProt Q9H6Z4) as the target, how does the log2 fold change read?
A: inactive: -0.012

Q: Which log2 fold change does the source give for RABIF (UniProt P47224) here?
A: inactive: -0.01

Q: Which log2 fold change does the source give for RAB11FIP4 (UniProt Q86YS3) here?
A: inactive: 0.099

Q: With PYCR1 (UniProt J3QKT4) as the target, how does the log2 fold change read?
A: inactive: 0.146

Q: With RAP1B (UniProt F5GZG1) as the target, how does the log2 fold change read?
A: inactive: -0.124

Q: With RAD18 (UniProt Q9NS91) as the target, how does the log2 fold change read?
A: inactive: -0.051

Q: How did the log2 fold change turn out when RAB14 (UniProt P61106) was run?
A: inactive: -0.007

Q: RALBP1 (UniProt Q15311) was tested. Which log2 fold change did it give?
A: inactive: 0.012

Q: How did the log2 fold change turn out when RAD51C (UniProt O43502) was run?
A: inactive: 0.026

Q: For RACGAP1 (UniProt Q9H0H5), which log2 fold change is on record?
A: inactive: -0.017

Q: RALGAPB (UniProt Q86X10) was tested. Which log2 fold change did it give?
A: inactive: 0.023

Q: Which log2 fold change does the source give for RABAC1 (UniProt Q9UI14) here?
A: inactive: 0.05

Q: For RACK1 (UniProt D6RF23), which log2 fold change is on record?
A: inactive: 0.218

Q: With RAD51 (UniProt Q06609) as the target, how does the log2 fold change read?
A: inactive: 0.058

Q: For QARS (UniProt P47897), which log2 fold change is on record?
A: inactive: 0.034

Q: For RAI14 isoform 2 (UniProt Q9P0K7), which log2 fold change is on record?
A: inactive: -0.052

Q: For RAN (UniProt P62826), which log2 fold change is on record?
A: inactive: 0.005
